{"source": "PubChem BioAssay AID1053208 (Peter MacCallum Cancer Centre, 2014)", "aim": "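Genes whose silencing cuts survival of bone tumour cells only with doxorubicin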 (primary screen)", "cell system": "mouse osteosarcoma cells, early-passage culture from an engineered mouse model of fibroblastic bone tumour", "knock-down reagent": "siRNA pool against mouse genes, 40 nM", "timing": "about 120 h (48 h before drug, then 72 h with drug)", "treatment": "doxorubicin 100 nM for 72 h, roughly 30-40% inhibitory dose", "detection": "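Luminescent ATP signal taken as viability with or without 100 nM doxorubicin for 72 h; mean of two wells set against non-targeting siRNA and turned into robust z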", "reading the numbers": "viability z-score with doxorubicin: higher = more viable cells under doxorubicin; viability z-score without drug: higher = more viable cells with knock-down alone", "hit rule": "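Called active if knock-down leaves viability unchanged without drug (z within -2 to 2) but lowers it with doxorubicin (z at or under -2)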", "note": "In all, the deposit lists about 17,000 reagents; this is an unselected part. Over the whole deposit, 788 (4.7%) were called active. 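Calls rest on z-score classes alone; an extra cut-off of viability at most 70% of control was not applied to them.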 Entries without a mark were called inactive. Not all columns of the deposit are shown."}
{"Target gene": "Or5p52", "PubChem SID": "SID152337581", "combined z-score class": "no change with or without drug", "viability z-score with doxorubicin": -1.8, "viability z-score without drug": -0.17}
{"Target gene": "4931422A03Rik", "PubChem SID": "SID152338110", "combined z-score class": "high cell count without drug only", "viability z-score with doxorubicin": 0.22, "viability z-score without drug": 3.37}
{"Target gene": "Nudt6", "PubChem SID": "SID152274012", "combined z-score class": "no change with or without drug", "viability z-score with doxorubicin": -0.45, "viability z-score without drug": -0.51}
{"Target gene": "Endov", "PubChem SID": "SID152296546", "combined z-score class": "no change with or without drug", "viability z-score with doxorubicin": 0.67, "viability z-score without drug": -0.51}
{"Target gene": "Npnt", "PubChem SID": "SID152340901", "combined z-score class": "no change with or without drug", "viability z-score with doxorubicin": -0.9, "viability z-score without drug": -0.51}
{"Target gene": "Zfp629", "PubChem SID": "SID152282631", "combined z-score class": "no change with or without drug", "viability z-score with doxorubicin": -0.67, "viability z-score without drug": -1.85}
{"Target gene": "Sh3bgrl3", "PubChem SID": "SID152329600", "combined z-score class": "no change with or without drug", "viability z-score with doxorubicin": -0.67, "viability z-score without drug": -1.52}
{"Target gene": "Il24", "PubChem SID": "SID152341904", "combined z-score class": "no change with or without drug", "viability z-score with doxorubicin": -0.22, "viability z-score without drug": -1.18}
{"Target gene": "Gpbp1l1", "PubChem SID": "SID152276305", "combined z-score class": "no change with or without drug", "viability z-score with doxorubicin": -0.45, "viability z-score without drug": 1.18}
{"Target gene": "Cxcl1", "PubChem SID": "SID152340466", "combined z-score class": "no change with or without drug", "viability z-score with doxorubicin": 0.67, "viability z-score without drug": 1.01}
{"Target gene": "Synpo2l", "PubChem SID": "SID152342459", "combined z-score class": "no change with or without drug", "viability z-score with doxorubicin": 1.35, "viability z-score without drug": -0.51}
{"Target gene": "Hagh", "PubChem SID": "SID152307294", "combined z-score class": "no change with or without drug", "viability z-score with doxorubicin": -0.67, "viability z-score without drug": -0.67}
